# Results are given in words; binding and its absence hold for the method and conditions named. Some results given as binding are weak or reduced against the parent protein; the word gives no strength.
# The chains behind the UniProt entries cited, without tags or fusion partners.
# UniProt O89079: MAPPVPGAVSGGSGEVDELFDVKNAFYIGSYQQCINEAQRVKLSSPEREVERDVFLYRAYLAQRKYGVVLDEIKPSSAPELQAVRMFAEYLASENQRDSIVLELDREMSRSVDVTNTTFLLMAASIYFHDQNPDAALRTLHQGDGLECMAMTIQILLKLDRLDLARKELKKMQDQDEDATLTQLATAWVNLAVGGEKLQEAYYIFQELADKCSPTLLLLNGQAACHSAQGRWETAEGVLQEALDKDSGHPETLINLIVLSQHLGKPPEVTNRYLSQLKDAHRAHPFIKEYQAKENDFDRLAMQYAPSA
# T1: α-COP subunit of recombinant murine coatomer (murine) (UniProt Q8CIE6)
# T1 sequence: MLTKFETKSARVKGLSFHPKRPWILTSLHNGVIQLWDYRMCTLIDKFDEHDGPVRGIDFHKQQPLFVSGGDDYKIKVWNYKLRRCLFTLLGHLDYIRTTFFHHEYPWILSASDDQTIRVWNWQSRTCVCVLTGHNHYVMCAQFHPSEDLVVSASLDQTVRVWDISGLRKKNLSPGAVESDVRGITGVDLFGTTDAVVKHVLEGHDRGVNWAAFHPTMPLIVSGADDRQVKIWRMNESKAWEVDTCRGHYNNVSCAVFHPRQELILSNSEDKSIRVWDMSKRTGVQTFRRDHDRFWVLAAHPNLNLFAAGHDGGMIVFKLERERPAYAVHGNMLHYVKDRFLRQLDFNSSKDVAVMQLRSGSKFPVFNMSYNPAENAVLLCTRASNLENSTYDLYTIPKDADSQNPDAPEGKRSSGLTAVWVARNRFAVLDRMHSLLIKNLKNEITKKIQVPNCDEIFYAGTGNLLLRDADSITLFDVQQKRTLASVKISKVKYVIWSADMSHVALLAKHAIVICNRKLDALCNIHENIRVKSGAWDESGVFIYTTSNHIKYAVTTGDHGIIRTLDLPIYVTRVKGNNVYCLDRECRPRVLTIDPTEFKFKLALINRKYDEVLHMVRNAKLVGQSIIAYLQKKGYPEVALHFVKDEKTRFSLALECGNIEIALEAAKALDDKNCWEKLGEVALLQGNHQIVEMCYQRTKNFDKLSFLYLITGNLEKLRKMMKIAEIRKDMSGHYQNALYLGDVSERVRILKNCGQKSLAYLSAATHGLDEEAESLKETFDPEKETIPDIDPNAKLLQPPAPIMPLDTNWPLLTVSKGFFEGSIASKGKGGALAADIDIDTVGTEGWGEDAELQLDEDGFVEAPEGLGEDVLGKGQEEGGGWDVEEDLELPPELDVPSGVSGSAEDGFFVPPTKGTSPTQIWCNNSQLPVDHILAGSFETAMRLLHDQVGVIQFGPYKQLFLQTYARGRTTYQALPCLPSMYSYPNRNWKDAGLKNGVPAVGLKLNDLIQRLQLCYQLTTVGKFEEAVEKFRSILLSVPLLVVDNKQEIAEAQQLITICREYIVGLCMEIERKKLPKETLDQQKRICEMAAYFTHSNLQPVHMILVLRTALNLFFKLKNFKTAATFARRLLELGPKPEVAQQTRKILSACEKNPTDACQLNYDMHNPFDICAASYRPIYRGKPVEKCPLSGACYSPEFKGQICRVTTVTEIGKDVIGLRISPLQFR
# B1: ζ2-COP subunit of recombinant murine coatomer (protein, UniProt Q9JHH9 1-205)
# chain: MQRPEAWPRPHPGEGASAAQAGGAAPPTRATEQREPSLYTIKAVFILDNDGRRLLAKYYDDTFPSVKEQMVFEKNVFNKTSRTESEIAFLGGMTIVYKSSIDIFLYVVGSSSENELMLMSVLACLFDSLSHILRKNVEKRWLLENMDGAFLVLDETVDGGVILESDPQQVIQKVNFRTDDSGLTEQSVAQVLQSAKEQIKWSLLK
# B2: ζ1-COP subunit of recombinant murine coatomer (protein, UniProt P61924 1-177)
# chain: MEALILEPSLYTVKAILILDNDGDRLFAKYYDDTYPSVKEQKAFEKNIFNKTHRTDSEIALLEGLTVVYKSSIDLYFYVIGSSYENELMLMAVLNCLFDSLSQMLRKNVEKRALLENMEGLFLAVDEIVDGGVILESDPQQVVHRVALRGEDVPLTEQTVSQVLQSAKEQIKWSLLR
# B3: γ2-COP subunit of recombinant murine coatomer (protein, UniProt Q9QXK3 1-871)
# chain: MIKKFDKKDEESGSGSNPFQHLEKSAVLQEARIFNETPINPRRCLHILTKILYLLNQGEHFGTMEATEAFFAMTRLFQSNDQTLRRMCYLTIKEMATISEDVIIVTSSLTKDMTGKEDVYRGPAIRALCRITDGTMLQAVERYMKQAIVDKVSSVASSALVSSLHMMKISYDVVKRWINEAQEAASSDNIMVQYHALGVLYHLRKNDRLAVSKMLNKFTKSGLKSQFAYCMLIRIASRLLKESEDGHESPLFDFIESCLRNKHEMVIYEAASAIIHLPNCTARELAPAVSVLQLFCSSPKPALRYAAVRTLNKVAMKHPSAVTACNLDLENLITDSNRSIATLAITTLLKTGSESSVDRLMKQISSFVSEISDEFKVVVVQAISALCHKYPRKHSVMMTFLSNMLRDDGGFEYKKAIVDCIISIVEENPESKEAGLAHLCEFIEDCEHTVLATKILHLLGKEGPRTPVPSKYIRFIFNRVVLENEAVRAAAVSALAKFGAQNESLLPSILVLLQRCMMDTDDEVRDRATFYLNVLQQRQMALNATYIFNGLTVSIPGMEKALHQYTLEPSEKPFDMKSIPLAMAPVFEQKSEITLVTPKPEKLAPSRQDIFQEQLAAIPEFMNLGPLFKSSEPVQLTEAETEYFVRCVKHMFTDHIVFQFDCTNTLNDQLLEKVTVQMEPSDSYEVLCCIPAPSLPYNQPGICYTLVRLPDEDPTAVAGTFSCTMKFTVRDCDPNTGVPDEDGYDDEYVLEDLEVTVSDHIQKILKPNFAAAWEEVGDAFEKEETFALSSTKTLEEAVNNIITFLGMQPCERSDKVPENKNSHSLYLAGVYRGGYDLLVRSRLALADGVTMQVTVRSKERTPVDVILASVG
# B4: β'-COP subunit of recombinant murine coatomer (protein, UniProt O55029 1-905)
# chain: MPLRLDIKRKLTARSDRVKSVDLHPTEPWMLASLYNGSVCVWNHETQTLVKTFEVCDLPVRAAKFVARKNWVVTGADDMQIRVFNYNTLERVHMFEAHSDYIRCIAVHPTQPFILTSSDDMLIKLWDWDKKWSCSQVFEGHTHYVMQIVINPKDNNQFASASLDRTIKVWQLGSSSPNFTLEGHEKGVNCIDYYSGGDKPYLISGADDRLVKIWDYQNKTCVQTLEGHAQNVSCASFHPELPIIITGSEDGTVRIWHSSTYRLESTLNYGMERVWCVASLRGSNNVALGYDEGSIIVKLGREEPAMSMDANGKIIWAKHSEVQQANLKAMGDTEIKDGERLPLAVKDMGSCEIYPQTIQHNPNGRFVVVCGDGEYIIYTAMALRNKSFGSAQEFAWAHDSSEYAIRESNSIVKIFKNFKEKKSFKPDFGAESIYGGFLLGVRSVNGLAFYDWENTELIRRIEIQPKHIFWSDSGELVCIATEESFFILKYLSEKVLAAQETHEGVTEDGIEDAFEVLGEIQEIVKTGLWVGDCFIYTSSVNRLNYYVGGEIVTIAHLDRTMYLLGYIPKDNRLYLGDKELNIVSYSLLVSVLEYQTAVMRRDFSMADKVLPTIPKEQRTRVAHFLEKQGFKQQALTVSTDPEHRFELALQLGELKIAYQLAVEAESEQKWKQLAELAISKCQFSLAQECLHHAQDYGGLLLLATASGNASMVNKLAEGAERDGKNNVAFMSYFLQGKLDACLELLIRTGRLPEAAFLARTYLPSQVSRVVKLWRENLSKVNQKAAESLADPTEYENLFPGLKEAFVVEEWVKETHADLWPAKQYPLVTPNEERNVMEEAKGFQPSRPTAQQEPDGKPASSPVIMASQTTHKEEKSLLELEVDLDNLELEDIDTTDINLDEDILDD
# B5: β-COP subunit of recombinant murine coatomer (protein, UniProt Q9JIF7 1-953)
# chain: MTAAENVCYTLINVPMDSEPPSEISLKNDLEKGDVKSKTEALKKVIIMILNGEKLPGLLMTIIRFVLPLQDHTIKKLLLVFWEIVPKTTPDGRLLHEMILVCDAYRKDLQHPNEFIRGSTLRFLCKLKEAELLEPLMPAIRACLEHRHSYVRRNAVLAIYTIYRNFEHLIPDAPELIHDFLVNEKDASCKRNAFMMLIHADQDRALDYLSTCIDQVQTFGDILQLVIVELIYKVCHANPSERARFIRCIYNLLQSSSPAVKYEAAGTLVTLSSAPTAIKAAAQCYIDLIIKESDNNVKLIVLDRLVELKEHPAHERVLQDLVMDILRVLSTPDLEVRKKTLQLALDLVSSRNVEELVIVLKKEVIKTNNVSEHEDTDKYRQLLVRTLHSCSVRFPDMAANVIPVLMEFLSDSNEAAAADVLEFVREAIQRFDNLRMLIVEKMLEVFHAIKSVKIYRGALWILGEYCSTKEDIQSVMTEVRRSLGEIPIVESEIKKEAGELKPEEEITVGPVQKLVTEMGTYATQSALSSSRPTKKEEDRPPLRGFLLDGDFFVAASLATTLTKIALRYVALVQEKKKQNSFVAEAMLLMATILHLGKSSLPKKPITDDDVDRISLCLKVLSECSPLMNDIFNKECRQSLSQMLSAKLEEEKLSQKKESEKRNVTVQPDDPISFMQLTAKNEMNCKEDQFQLSLLAAMGNTQRKEAADPLASKLNKVTQLTGFSDPVYAEAYVHVNQYDIVLDVLVVNQTSDTLQNCTLELATLGDLKLVEKPSPLTLAPHDFANIKANVKVASTENGIIFGNIVYDVSGAASDRNCVVLSDIHIDIMDYIQPATCTDAEFRQMWAEFEWENKVTVNTNMTDLNDYLQHILKSTNMKCLTPEKALSGYCGFMAANLYARSIFGEDALANVSIEKPVHQGPDAAVTGHIRIRAKSQGMALSLGDKINLSQKKTSL
# B6: γ1-COP subunit of recombinant murine coatomer (protein, UniProt Q9QZE5 1-874)
# chain: MLKKFDKKDEESGGGSNPLQHLEKSAVLQEARVFNETPINPRKCAHILTKILYLINQGEHLGTTEATEAFFAMTKLFQSNDPTLRRMCYLTIKEMSCIAEDVIIVTSSLTKDMTGKEDNYRGPAVRALCQITDSTMLQAVERYMKQAIVDKVPSVSSSALVSSLHLLKCSFDVVKRWVNEAQEAASSDNIMVQYHALGLLYHVRKNDRLAVSKMISKFTRHGLKSPFAYCMMIRVASKQLEEEDGSRDSPLFDFIESCLRNKHEMVVYEAASAIVNLPGCSAKELAPAVSVLQLFCSSPKAALRYAAVRTLNKVAMKHPSAVTACNLDLENLVTDSNRSIATLAITTLLKTGSESSIDRLMKQISSFMSEISDEFKVVVVQAISALCQKYPRKHAVLMNFLFTMLREEGGFEYKRAIVDCIISIIEENSESKETGLSHLCEFIEDCEFTVLATRILHLLGQEGPKTNNPSKYIRFIYNRVVLEHEEVRAGAVSALAKFGAQNEEMLPSILVLLKRCVMDDDNEVRDRATFYLNVLEQKQKALNAGYILNGLTVSIPGLEKALQQYTLEPSEKPFDLKSVPLATTPMAEQRPESTATAAVKQPEKVAATRQEIFQEQLAAVPEFQGLGPLFKSSPEPVALTESETEYVIRCTKHTFSDHLVFQFDCTNTLNDQTLENVTVQMEPTEAYEVLSYVPARSLPYNQPGTCYTLVALPTEDPTAVACTFSCVMKFTVKDCDPNTGEIDEEGYEDEYVLEDLEVTVADHIQKVMKVNFEAAWDEVGDEFEKEETFTLSTIKTLEEAVGNIVKFLGMHPCERSDKVPENKNTHTLLLAGVFRGGHDILVRSRLLLLDTVTMQVTARSSEELPVDIILASVG
# Target: T1, α-COP subunit of recombinant murine coatomer (murine)
# Assay: co-purification on Strep-Tactin Sepharose
row,binding,Molecule
1,binds,B1
2,binds,B2
3,binds,B3
4,binds,B4
5,binds,B5
6,binds,B6

# Target: T1, α-COP subunit of recombinant murine coatomer (murine)
# Assay: co-purification on Strep-Tactin Sepharose
# Remark: another data set of the same source
row,binding,Molecule
1,binds,ε-COP subunit of recombinant murine coatomer (from UniProt O89079 1-308)

# From doi:10.1101/254052
